In patent US7229768B2, “Universal G-protein coupled receptor reporter constructs” (IRM LLC, priority 2004, dated 2007):
At least one compound was matched to its structure with a doubt left.

Test system: adenyl cyclase
Assay: MRE/CRE/Luciferase reporter gene assay in the 5HT2C cell line
Assay type: cell-based, human
Settings: 5HT2C cell line (stably transfected HEK-293), forskolin treatment to activate adenyl cyclase

C=C[C@@]1(C)CC(=O)[C@]2(O)[C@@]3(C)[C@@H](O)CCC(C)(C)[C@@H]3[C@H](O)[C@H](OC(C)=O)[C@@]2(C)O1 [forskolin]
stimulation of the MRE/CRE/Luciferase reporter gene system: could stimulate the reporter gene system
